We go through nine sequences from the supplement of paper PMC9233669.

For data set [1], the system named is biotinyl-Val-oxazolone. Nature of the data set: self-aminoacylation, catalytic enhancement (BVO) (fold over background); higher = more active; k-Seq, kA / k0A0; sequences stand for … in GGGAAUGGAUCCACAUCUACGAAUUC…UUCACUGCAGACUUGACGAAGCUG
Put shortly:
(§1)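 Catalytic enhancement equals the median kA over the uncatalyzed rate, the latter read from the low-activity peak of a bimodal Gaussian fit. Values of kA came from fitting each sequence's fraction reacted to a pseudo-first-order model, with 1000 bootstraps. Reacted RNA was captured with streptavidin and quantified by triplicate qPCR and Illumina sequencing after 90 minutes at room temperature with 2–1250 μM biotinyl-aminoacyl-oxazolone and 0.43 μM mutagenized RNA pools bearing a 21-nt variable region.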

Data set [2] deals with biotinyl-Leu-oxazolone. Briefly: self-aminoacylation, catalytic enhancement (BLO) (fold over background); higher = more active; k-Seq, kA / k0A0; sequences stand for … in GGGAAUGGAUCCACAUCUACGAAUUC…UUCACUGCAGACUUGACGAAGCUG
The method in brief: as §1

Data set [3] relates to biotinyl-Ile-oxazolone. Briefly: self-aminoacylation, catalytic enhancement (BIO) (fold over background); higher = more active; k-Seq, kA / k0A0; sequences stand for … in GGGAAUGGAUCCACAUCUACGAAUUC…UUCACUGCAGACUUGACGAAGCUG
The method in brief:
as §1

Data set [4] deals with biotinyl-Met-oxazolone. Nature of the data set: self-aminoacylation, catalytic enhancement (BMO) (fold over background); higher = more active; k-Seq, kA / k0A0; sequences stand for … in GGGAAUGGAUCCACAUCUACGAAUUC…UUCACUGCAGACUUGACGAAGCUG
Put shortly: as §1

Data set [5] has as its system biotinyl-Phe-oxazolone. Briefly: self-aminoacylation, catalytic enhancement (BFO) (fold over background); higher = more active; k-Seq, kA / k0A0; sequences stand for … in GGGAAUGGAUCCACAUCUACGAAUUC…UUCACUGCAGACUUGACGAAGCUG
Put shortly:
as §1

Data set [6] has as its system biotinyl-Trp-oxazolone. Briefly: self-aminoacylation, catalytic enhancement (BWO) (fold over background); higher = more active; k-Seq, kA / k0A0; sequences stand for … in GGGAAUGGAUCCACAUCUACGAAUUC…UUCACUGCAGACUUGACGAAGCUG
Put shortly:
as §1

This sample is rich in variants without activity.

Take “CCACUCUUCUAGCAAUCGGUC [Fam1B.1 aminoacylation ribozyme variant]”: the self-aminoacylation stood at 0.977 in data set [1]; 0.692 in data set [2]; 0.867 in data set [3]; 0.745 in data set [4]; 1.02 in data set [5]; 0.765 in data set [6].

In the case of “AUAACCCUGGUCAUCGAUUGA [Fam2.1 aminoacylation ribozyme variant]”, the self-aminoacylation in data set [1] is 0.974; in data set [2], 1.02; in data set [3], 0.94; in data set [4], 0.883; in data set [5], 0.646; in data set [6] it was 0.392.

Consider “CUACUUCAAACAAUACGUCUG [Fam1A.1 aminoacylation ribozyme variant]”, for which the self-aminoacylation came out at 0.886 in data set [1]; 0.648 in data set [2]; 0.792 in data set [3]; 0.677 in data set [4]; 0.917 in data set [5]; 0.574 in data set [6].

Turning to “CCACACUUCACGCAACCGGUC [Fam1B.1 aminoacylation ribozyme variant]”, the self-aminoacylation in data set [1] came to 1.55; in data set [2], 1.55; in data set [3] it was 1.24; in data set [4] it was 1.21; in data set [5], 0.978; in data set [6] it was 0.831.

Take “CUCCUUCCAACAAUCGGUCUG [Fam1A.1 aminoacylation ribozyme variant]”: the self-aminoacylation in data set [1] amounted to 0.876; in data set [2], 0.948; in data set [3] it was 1.03; in data set [4], 0.84; in data set [5] it was 1.43; in data set [6], 1.31.

On to “CCACACUUCAAGCUAUCAGUC [Fam1B.1 aminoacylation ribozyme variant]”, for which the self-aminoacylation in data set [1] was found to be 0.949; in data set [2], 0.651; in data set [3], 0.82; in data set [4], 0.658; in data set [5], 1.16; in data set [6] it was 0.589.

With “CUACUUCAAACAAUCGGUUGG [Fam1A.1 aminoacylation ribozyme variant]”, the self-aminoacylation stood at 0.812 in data set [1]; 0.788 in data set [2]; 0.843 in data set [3]; 0.619 in data set [4]; 3.55 in data set [5]; 1.82 in data set [6].

Take “CUACACUUCAAGCAUUCGGUC [Fam1B.1 aminoacylation ribozyme variant]”: the self-aminoacylation in data set [1] was found to be 1.05; in data set [2], 0.87; in data set [3], 1.17; in data set [4], 0.873; in data set [5], 1.04; in data set [6], 1.11.

Turning to “AAGUUUGCUCAUAGUCUCAAG [Fam3.1 aminoacylation ribozyme variant]”, the self-aminoacylation came out at 0.901 in data set [1]; 0.977 in data set [2]; 0.872 in data set [3]; 0.869 in data set [4]; 1.98 in data set [5]; 0.98 in data set [6].
